Assay results published in PubChem BioAssay AID2685 (National Center for Advancing Translational Sciences (NCATS), 2010).
Out of some 320,000 compounds screened, about 2,100 (0.66%) were called active. This list was built around the results that the source calls inconclusive (neither active nor inactive); the mix of calls is not that of the screen. Calls come from the whole dose curve; as a rule, active = well fitted inhibition curve with a large enough effect in the signal ratio, with a control signal flat (not every such curve was filed as active); inconclusive = small, poorly fitted or top-dose-only effect, or effect the other way, or a change in a side signal; inactive = flat fitted curve, though single readings scatter; the % refers to the signal ratio. A potency beside an inconclusive call is a rough fit, not a confirmed value.

Assay: qHTS Assay for Lipid Storage Modulators in Drosophila S3 Cells
Details: BODIPY lipid droplet fluorescence, 18-24 h, cells fed with added oleic acid; lipid storage change, negative = inhibition: at 46.1 µM (top of the series) unless noted
Summary of the method: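 Laser-scanning cytometry quantifies lipid droplet accumulation (500–530 nm total intensity; droplet/cell object ratio) in oleic acid-fed (400 uM added) Drosophila S3 cells treated with a concentration series. 20 uM Triacsin C defined 100% inhibition.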
% is set by controls: 0 for no effect and ±100 for the full control effect; potency is the fitted concentration of half-maximal effect.

| Compound | lipid storage change, negative = inhibition | Potency |
| --- | --- | --- |
| CCOC(=O)N1CCN(C(=O)C2CCN(Cc3ccc(O)c(OCC)c3)CC2)CC1 | inconclusive: -26.8% | – |
| CCOc1ccc(-c2cc(CCCC(=O)NCc3ccco3)no2)cc1 | inactive: 21.6% | – |
| c1ccc(CNc2ncnc3scc(-c4cccs4)c23)nc1 | – | inconclusive: 9.2 µM [falling, single point] |
| O=C1CC(NS(=O)(=O)c2cccs2)CN1c1cccc(F)c1 (stereo not given) | inconclusive: 22.7% | – |
| O=C(c1ccc(F)cc1)N1CCN2C(=O)c3ccccc3C12c1ccc(Cl)cc1 (stereo not given) | inconclusive: 14.2% | – |
| CCCC(=O)Nc1cccc(S(=O)(=O)N(C)c2ccccc2)c1 | inconclusive: 16.9% | – |
| COc1cccc(NC(=O)CN(C)C(=O)c2cccc(S(=O)(=O)Nc3ccc(C)cc3)c2)c1 | – | inconclusive: 14.6 µM [falling, single point] |
| O=C(CSc1nnc(-c2ccc(O)cc2)n1Cc1ccco1)N1CCc2ccccc2C1 | – | inconclusive: 4.61 µM [activator, partial curve] |
| COc1ccc(C(=O)Nc2c(N)nc(SCC(=O)Nc3ccc(NC(C)=O)cc3)[nH]c2=O)cc1OC | – | inconclusive: 18.4 µM [activator, single point] |
| CCN(c1ccccc1)S(=O)(=O)c1ccc(OC)c(NC(=O)c2cc(Cl)ccn2)c1 | inconclusive | – |
| CCCc1cc2c(=O)c(-c3nc4ccccc4s3)c(COCC(=O)O)oc2cc1O | inconclusive: -3.61% | – |
| CN(Cc1ccccc1)S(=O)(=O)c1ccc(NS(=O)(=O)Cc2ccccc2)cc1 | – | inconclusive: 10.3 µM [rising, partial curve] |
| Cc1ccc(OCC(=O)NC2CC(C)(C)NC(C)(C)C2)c(C)c1 | inconclusive: 7.31% | – |
| CCOC(=O)n1cc(C(=O)c2ccccc2O)cn1 | – | inconclusive: 29.1 µM [falling, single point] |
| COc1cccc(NC(=O)CCC2CCN(C(=O)C3CC=CCC3)CC2)c1 (stereo not given) | inconclusive: 79.5% | – |
| Cc1ccc(S(=O)(=O)C(CCC(=O)N2CCOCC2)S(=O)(=O)c2ccc(C)cc2)cc1 | inactive: 11.4% | – |
| CC(=O)c1ccc(C(=O)N2CCC(n3nccc3NC(=O)C3CC3)CC2)cc1 | inconclusive: -5.21% | – |
| COc1ccccc1NC(=O)C(=O)NCCC1CCCCN1S(=O)(=O)c1ccc(F)cc1 (stereo not given) | – | inconclusive: 16.4 µM [falling, single point] |
| COC(=O)c1ccccc1SCC(=O)Nc1ccc(N2CCOCC2)cc1 | – | inconclusive: 2.31 µM [activator, full curve, poor fit] |
| COCCN(C(=O)CSc1n[nH]c(-c2ccccc2)n1)c1c(N)n(CC(C)C)c(=O)[nH]c1=O | inconclusive: 78.4% [activator] [at 0.0737 µM] | – |
